Where a name gives a salt, the structure may show the parent alone. The list shows a part of the results. Repeats in this data set agree poorly, so a single value says little.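 Wells held roughly 40 S. mansoni schistosomula, imaged in bright field over time against wells given 0.1% DMSO. The paper defines hits as drugs with a Mahalanobis distance of at least 2.47, three standard deviations above the DMSO control mean. Degeneracy is the proportion of worms classified as opaque.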 Numbered stars: 1 amine (or outer) side, 2 acyl side, 3 side chain; on linkers, the order of the positions; unused ones are H or OH. Bridge positions count the residues as written; N and C are the ends. Square brackets hold non-standard residues; d marks the D form. Peptide text beside a SMILES is read from it. I, II: the chains in the order shown. Actinocin(9to1) = Cc1c2oc3c(C)ccc(C(=O)[*:1])c3nc-2c(C(=O)[*:2])c(N)c1=O; NMeV = CN[C@H](C(=O)O)C(C)C; Sar = CNCC(=O)O

The subject of this experiment is Schistosoma mansoni schistosomula. In words: degeneracy (percent of somules classified as degenerate/opaque); higher = more parasite degeneration/death; extreme values may be limits of the assay. The following applies: 10 µM; 72 h.
For `COCCOC(=O)C1=C(C)NC(C)=C(C(=O)OC(C)C)C1c1cccc([N+](=O)[O-])c1` (stereo not drawn) [Nimodipine], the degeneracy amounted to 11.1%. Consider `NCCS` [Cysteamine Hydrochloride], for which the degeneracy stood at 12.5%.

The compound `CN1C(C(=O)Nc2ccccn2)=C(O)c2ccccc2S1(=O)=O` [Piroxicam] returned a degeneracy of 3.33%. `NS(=O)(=O)Cc1noc2ccccc12` [Zonisamide]: the degeneracy worked out at 5.26%.

Turning to `CN(C)CCN(Cc1ccc(Cl)cc1)c1ccccn1` [Chloropyramine Hydrochloride], the degeneracy worked out at 39.3%. To `CCCCCCCCCCOc1cc2c(O)c(C(=O)OCC)cnc2cc1OCC` [Decoquinate] belongs 2.38%. In turn, `COc1ccc([C@@H]2Sc3ccccc3N(CCN(C)C)C(=O)[C@@H]2OC(C)=O)cc1` [Diltiazem Hydrochloride] registered a degeneracy of 8.7%.

`COc1ccc([C@@H]2Sc3ccccc3N(CCN(C)C)C(=O)[C@@H]2OC(C)=O)cc1` [Diltiazem]: the degeneracy was 22.2%. In turn, `Cc1cn([C@H]2C[C@H](N=[N+]=[N-])[C@@H](CO)O2)c(=O)[nH]c1=O` [Zidovudine [azt]] returned a degeneracy of 0%. To `O=C(O)CCCC[C@@H]1CCSS1` [Thioctic Acid] belongs 9.68%. The figure for `CCNC(=O)[C@@H]1CCCN1C(=O)[C@H](CCCNC(=N)N)NC(=O)[C@H](CC(C)C)NC(=O)[C@@H](CC(C)C)NC(=O)[C@H](Cc1ccc(O)cc1)NC(=O)[C@H](CO)NC(=O)[C@H](Cc1c[nH]c2ccccc12)NC(=O)[C@H](Cc1c[nH]cn1)NC(=O)[C@@H]1CCC(=O)N1` [Leuprolide] is 12.1%. Compound `COc1cc(NS(=O)(=O)c2ccc(N)cc2)nc(OC)n1` [Sulfadimethoxine] came in with a degeneracy of 6.25%. For the compound `CC[N+](CC)(CC(=O)Nc1c(C)cccc1C)Cc1ccccc1` [Denatonium Benzoate], the degeneracy was 12.5%.

Regarding `CC1(C)O[C@@H]2[C@@H](CO[C@@]3(COS(N)(=O)=O)OC(C)(C)O[C@@H]23)O1` [Topiramate], the degeneracy came out at 16.7%. The figure for `CC(C)Cn1cnc2c(N)nc3ccccc3c21` [Imiquimod] is 10.5%; for `CC(=O)OCC(=O)[C@@]1(O)[C@H](OC(C)=O)C[C@H]2[C@@H]3CCC4=CC(=O)C=C[C@]4(C)[C@@]3(F)[C@@H](O)C[C@@]21C` [Triamcinolone Diacetate] it is 3.45%; for `CCCC(=O)O[C@]1(C(=O)CO)CC[C@H]2[C@@H]3CCC4=CC(=O)CC[C@]4(C)[C@H]3[C@@H](O)C[C@@]21C` [Hydrocortisone Butyrate] it is 3.57%. For `CC1(C)S[C@@H]2[C@H](NC(=O)COc3ccccc3)C(=O)N2[C@H]1C(=O)O` [Penicillin V Potassium], the degeneracy was determined as 4.35%.

Turning to `O=c1[nH]c(=O)n([C@H]2C[C@H](O)[C@@H](CO)O2)cc1C(F)(F)F` [Trifluridine], the degeneracy was determined as 5%. `CC(C)NC(=N)NC(=N)Nc1ccc(Cl)cc1` [Proguanil; Chlorguanide Hydrochloride] showed a degeneracy of 4.35%. For `CN(Cc1ccc(C(C)(C)C)cc1)Cc1cccc2ccccc12` [Butenafine], the degeneracy was 0%. The figure for `CCCCCCCCNC(C)C(O)c1ccc(SC(C)C)cc1` (stereo not drawn) [suloctidil] is 100%. In turn, `C[C@H]1O[C@@H](O[C@H]2[C@@H](O)C[C@H](O[C@H]3[C@@H](O)C[C@H](O[C@H]4CC[C@@]5(C)[C@H](CC[C@@H]6[C@@H]5CC[C@]5(C)[C@@H](C7=CC(=O)OC7)CC[C@]65O)C4)O[C@@H]3C)O[C@@H]2C)C[C@H](O)[C@@H]1O` [digitoxin] showed a degeneracy of 100%. `Cc1c(C)c2c(c(C)c1O)CCC(C)(CCCC(C)CCCC(C)CCCC(C)C)O2` (stereo not drawn) [Alpha-tochopherol]: the degeneracy came to 0%. Take `CC(=O)O[C@]1(C(C)=O)CC[C@H]2[C@@H]3C=C(C)C4=CC(=O)CC[C@]4(C)[C@H]3CC[C@@]21C` [Megestrol Acetate]: the degeneracy was 11.9%. In turn, `Nc1nnc(-c2cccc(Cl)c2Cl)c(N)n1` [Lamotrigine] displayed a degeneracy of 2.63%. The figure for `Clc1cc(Cl)c(OCC#CI)cc1Cl` [Haloprogin] is 100%; for `Cc1ccc(C(C)C)c(O)c1` [Thymol] it is 12.5%; for `CC1=C(C(=O)O)N2C(=O)[C@@H](NC(=O)[C@H](N)c3ccccc3)[C@H]2SC1` [Cephalexin] it is 0%. As to `CC[C@H](C)C(=O)O[C@H]1C[C@H](O)C=C2C=C[C@H](C)[C@H](CC[C@@H](O)C[C@@H](O)CC(=O)O)[C@H]21` [Pravastatin Sodium], the degeneracy was 5.26%.

As to `CC[C@H](C)C(=O)O[C@H]1C[C@H](O)C=C2C=C[C@H](C)[C@H](CC[C@@H](O)C[C@@H](O)CC(=O)O)[C@H]21` [Pravastatin], the degeneracy came out at 15.8%. Compound `COc1ccc2cc3[n+](cc2c1OC)CCc1cc2c(cc1-3)OCO2` [Berberine Chloride] returned a degeneracy of 7.69%. The compound `O=C(c1cccnc1)N1CCOCC1` [Nicopholine] yielded a degeneracy of 7.32%. The compound `Cc1nccn1CC1CCc2c(c3ccccc3n2C)C1=O` (stereo not drawn) [Ondansetron] came in with a degeneracy of 10.7%.

`NC(=O)c1cc[n+](CC2=C(C(=O)[O-])N3C(=O)[C@@H](NC(=O)Cc4cccs4)[C@H]3SC2)cc1` [Cefalonium] registered a degeneracy of 0%.

On to `O=C1C(O)=C(O)C(=O)C(O)=C1O` [Tetroquinone], for which the degeneracy is 7.27%. In turn, `Cc1c2oc3c(C)ccc(C(=O)N[C@@H]4C(=O)N[C@H](C(C)C)C(=O)N5CCC[C@H]5C(=O)N(C)CC(=O)N(C)[C@@H](C(C)C)C(=O)O[C@@H]4C)c3nc-2c(C(=O)N[C@@H]2C(=O)N[C@H](C(C)C)C(=O)N3CCC[C@H]3C(=O)N(C)CC(=O)N(C)[C@@H](C(C)C)C(=O)O[C@@H]2C)c(N)c1=O` [Dactinomycin] (I: T[dV]P[Sar][NMeV] / II: T[dV]P[Sar][NMeV]; ester I:1-I:C, II:1-II:C; linker I:N-II:N via Actinocin(9to1)) came in with a degeneracy of 100%. The compound `COCCCOc1cc(C[C@@H](C[C@H](N)[C@@H](O)C[C@H](C(=O)NCC(C)(C)C(N)=O)C(C)C)C(C)C)ccc1OC` [Aliskiren Hemifumarate] came in with a degeneracy of 5.41%. To `CCCCOC(=O)c1ccc(O)cc1` [Butylparaben] belongs 100%; to `CC(=O)/N=c1/sc(S(N)(=O)=O)nn1C` [Methazolamide], 8.33%; to `CC1=CC(=O)c2ccccc2C1=O` [menadione], 100%. For the compound `CCCCC1C(=O)N(c2ccccc2)N(c2ccccc2)C1=O` [Phenylbutazone], the degeneracy worked out at 8.33%. To `Cc1ccc(C(=O)C(C)CN2CCCCC2)cc1` (stereo not drawn) [tolperisone] belongs 100%; to `O=C(CCCCC(=O)Nc1c(I)cc(I)c(C(=O)O)c1I)Nc1c(I)cc(I)c(C(=O)O)c1I` [iodipamide], 10%; to `O=C(O)Cc1cc(I)c(Oc2ccc(O)c(I)c2)c(I)c1` [Tiratricol], 10.3%. Take `C=COCC(F)(F)F` [Fluroxene]: the degeneracy is 2.44%. With `CC(=O)OCC(=O)[C@@]12OC3(CCCC3)O[C@@H]1C[C@H]1[C@@H]3CCC4=CC(=O)C=C[C@]4(C)[C@@]3(F)[C@@H](O)C[C@@]12C` [Amcinonide], the degeneracy was 4%. Regarding `N=C(N)c1ccc(N=NNc2ccc(C(=N)N)cc2)cc1` [Diminazene Aceturate], the degeneracy stood at 14.3%. In turn, `CC#CCC(C)[C@H](O)/C=C/[C@@H]1[C@H]2C/C(=C/CCCC(=O)O)C[C@H]2C[C@H]1O` (stereo partly drawn) [Iloprost] showed a degeneracy of 3.33%. The figure for `CN1[C@@H]2CC[C@H]1C[C@@H](OC(c1ccccc1)c1ccccc1)C2` [Benztropine] is 10%; for `CCOc1nc2cccc(C(=O)OCc3oc(=O)oc3C)c2n1Cc1ccc(-c2ccccc2-c2noc(=O)[nH]2)cc1` [Azilsartan Kamedoxomil] it is 10.5%; for `C1CCC(C(CC2CCCCN2)C2CCCCC2)CC1` (stereo not drawn) [perhexiline] it is 100%. `CC(=O)[C@@]1(O)CC[C@H]2[C@@H]3C[C@H](C)C4=CC(=O)C=C[C@]4(C)[C@@]3(F)[C@@H](O)C[C@@]21C` [Fluorometholone]: the degeneracy was determined as 3.03%. Compound `CCc1nc(N)nc(N)c1-c1ccc(Cl)cc1` [Pyrimethamine] yielded a degeneracy of 13.5%.

In turn, `COc1cc(C(=O)NCc2ccc(OCCN(C)C)cc2)cc(OC)c1OC` [Trimethobenzamide Hydrochloride] registered a degeneracy of 3.03%. For the compound `Clc1ccc(C(Cn2ccnc2)OCc2ccsc2Cl)c(Cl)c1` (stereo not drawn) [Tioconazole], the degeneracy turned out to be 100%. Compound `O=C1/C(=C/c2cccs2)CCC/C1=C\c1cccs1` [tenylidone] had a degeneracy of 22.2%.

Compound `C[C@H]1c2cccc(O)c2C(=O)C2=C(O)[C@]3(O)C(=O)C(C(N)=O)=C(O)[C@@H](N(C)C)[C@@H]3[C@@H](O)[C@@H]21` [Doxycycline] came in with a degeneracy of 7.69%. To `O=C(O)C(=O)O.[NH-][C@@H]1CCCC[C@H]1[NH-].[Pt+2]` [Oxaliplatin] belongs 10.7%; to `CCOC(=O)COc1ccc2c(=O)cc(-c3ccccc3)oc2c1` [Efloxate], 18.8%; to `C#Cc1cccc(Nc2ncnc3cc(OCCOC)c(OCCOC)cc23)c1` [Erlotinib], 3.23%. The figure for `Cc1onc(-c2ccccc2Cl)c1C(=O)N[C@@H]1C(=O)N2[C@@H]1SC(C)(C)[C@@H]2C(=O)O` [Cloxacillin] is 9.09%; for `CC(C)Nc1cccnc1N1CCN(C(=O)c2cc3cc(NS(C)(=O)=O)ccc3[nH]2)CC1` [Delavirdine Mesylate] it is 15.4%. Take `CN[C@@H]1[C@H](O)[C@H](NC)[C@H]2O[C@@]3(O)C(=O)C[C@@H](C)O[C@H]3O[C@@H]2[C@H]1O` [Spectinomycin]: the degeneracy stood at 8.7%. The figure for `NS(=O)(=O)c1cc2c(cc1Cl)NC(C(Cl)Cl)NS2(=O)=O` (stereo not drawn) [Trichlormethiazide] is 9.68%. Compound `CC(=O)NC(Cc1ccccc1)C(=O)O` (stereo not drawn) [Afalanine] yielded a degeneracy of 100%. To `CCCCCCOC(=O)NC(=N)c1ccc(NCc2nc3cc(C(=O)N(CCC(=O)OCC)c4ccccn4)ccc3n2C)cc1` [Dabigatran Etexilate Mesylate] belongs 2.86%; to `NCCCC(=O)O` [Gaba, Gamma-aminobutyric Acid], 5%.

(Values after the supplement of paper PMC7752906.)
